Assay results

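Luminescence from an EWS-FLI1 target-promoter (NR0B1) reporter, set against a CMV-promoter reporter, two days after silencing single genes in TC32 Ewing sarcoma cells. Each siRNA was applied at 20 nM. A z-score of the log NR0B1-over-CMV signal, less the median of siRNAs with the same seed; more negative means a stronger specific loss of the NR0B1 reporter.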

This is part of the screen; most of the strongest results are not listed here. Sequences are the guide (antisense) strand, without overhang.

Sequence	gene	seed-corrected z-score
UCAAUUUCAUCCUGGAUCC	PADI2	-0.8115
AACUGUACGACAAGGAGCU	RNF212	-0.05812
UUCUGUCUGAGUCCGUCUC	SIGLEC10	-0.05755
UGGAUCUUCACCUCUGUUG	HAUS7	0.3765
AUUCGAUCUAGAGUACUAC	SOS2	-0.5152
AAUUGCAUUGUCAAGGUUG	NNT	-0.3642
UACCCGACCAAGCAUAUCC	ATP6V1B2	0.007451
UAGAAGUCCCGGAUAAUGG	CLDN3	0.1581
UUAGGGAUAGCUUCUGAGG	ITGA2B	1.131
UGAGAUAUCAGGCUCAAGG	LRRN4	-1.687
UUCCCGUUCACAUUUCCGG	TOE1	-0.7187
UUGGGUAAUAGCUCUGAGG	DNMT3A	-1.608
UAAGUUGAAAAUGUCGGAC	TIGD7	0.662
UUCUGAUUCUGCGACUUGC	MCMDC2	-0.8554
AACAAGACAAGAUACGUCC	LOC648934	0.1271
UAUGAGUCAGCAGAAAGUC	AWAT2	-0.6608
AUCGAUUUUAAUCCACUUC	STON1	0.4128
AUUCUCAUUAUCUCCGUGC	DZANK1	-0.4994
UUUUGUUGGUUUGUCCACU	CFHR2	-0.1607
UACUUGAGGCUCCAUAUGC	DNAJC19P9	0.7947
AUCGGGCUUCUCAUUCUCC	DEFB105A	-0.549
UGACGAAUCAACUCCUUGG	CIPC	-0.5266
UAUCUUCUCCGUUAAAGCC	FSIP2	0.3204
GUGGGAACCAUAGUGGUGG	KCNG4	0.3123
AUGAUGAUAAUUACCGAUG	UBR3	-0.2639
UGGUCUCCAACCACUGAUG	RNF185	-1.373
AAAGAUAUCCAGCACCUUC	ARHGEF40	-0.7445
UGUGGUAAAAGAUAUGUGC	MAGOHB	0.3442
UAUUCAGUUUCCGAAGUUC	CREBRF	-0.0954
UGAUUUGUGACAACUGUAG	CENPVP1	0.1425
UUGACAUCCAGGGACACGC	HSPB1	-0.4658
UCAAAGUACCGGAUUGAGC	CORO1A	1.53
UGACCAAUUAAUUACCUGG	KIAA1109	0.4129
UCUCUUGUGGUCAUUGAGG	ZNF735	-0.1042
UCCUUGCUCAUUAAGGGAG	GNB3	-0.5075
UAUUUCAGCACUUUUUGCA	MOCS2	0.005544
UUUGGUCUGUGCCUUGCUC	PERM1	-1.227
AAAGGUAUAGGAACCGUUG	RNF220	0.4587
UGAUAAACUGUGGUGUUGC	GABPB1	0.1868
UGCCCGUUUACUUUUCUCC	SULT1C4	0.02086
UCAUGAUACUUUUUCACGG	PDGFD	0.2814
UCGGAGAUCAGGUAGCACU	DMRTB1	0.2179
UUGGUCUUGCACGUCGUCG	ZNF787	-1.161
UCUUUCAUCACUGUCCGCG	BEND7	-0.2787
UCUCUGAGGAUGUUGAGGC	UBE2M	-0.3118
UAUGCUCAUGUAAGGAUGG	MAPK6	0.6199
UCGGUUCCCAACAAUCAGG	KLHL1	0.1587
UGGUGUACGACAUCUCACC	CYP4X1	0.3138
UAACUAUCCUGUCAAGUUC	HIST1H2AG	0.4356
UAUAGGUUUUCAUAGGAUC	PRKG1	-0.444
UGAACAGAAAGAGUCCUGC	ASPSCR1	0.3537
UCUGGGUAUAUGAGCACUC	TFR2	0.001927
UAAGAUACUCCCAUUUUCC	CDYL2	0.2851
AACUGAUCUAUAUCAUCUG	DSEL	-1.844
AUCUUGUUGAGAUCCACUG	KRT36	0.9657
UUUGGGUUCAGGCUCCGUG	ZNF723P	1.455
UUCCGCUCAAUUACUUUGC	TP53TG5	0.01932
UUCAUCACAGUCAUUCUUG	PLA2G12A	0.2451
UUUGUCUUCACGGCCUUGU	REEP2	-0.5329
UCAGCAACAUGAACAUCUC	SMCO4	-0.6521
UCUACUAGUAAAACCAGGC	C12orf4	-0.4813
AUCAUGCCUAUAUAGUUUG	KCNJ2-AS1	0.1569
UAACCUUCACGGCAUGAUG	KRTAP19-6	-0.3407
AAUCUUUGAAUGGUGUUCG	GRK7	0.1845
UCUGUCGCAUCAAAAAUGG	PPP4R4	-1.003
UAACGAUAAUAGUUCCAGC	DNAJC10	0.5166
UCUGGUGCUUGGUUAGGUC	RAB25	-1.324
UAGUUUAACACAAAAAUAC	PPP1R35	0.5321
UAACUGGAACUCGUCAUCC	ARL2BP	-1.125
UAGAGUCCGAUACUUAUUC	BTN3A1	0.5884
UUUGUAGUUAAUACGAGGG	FAM118B	-1.913
UAUAUGUAGAGUCCGAAUG	TRMT11	-0.4312
UCUGGUAGCAGCAAUAGCG	BARD1	-0.2252
UUACGGAACAGCGGUGUUU	MED8	0.06162
UCACUGAAAGCAAUGAUCU	PRDX1	-0.216
UCGAACUUGAUUUCCAUCC	NSUN4	-0.4452
UAGAUCGACGUAGUCCUCC	SHANK1	0.02519
UAUACUUGACUCGAUAGGC	QARS	-1.784
UGUUUGAUUUGGUGCUUGU	RPL23AP14	-1.082
UCUGGUGCUCUUGUUGCUG	SLC22A6	-0.1169
AACGGACUGACAUAGAGCC	GAS2L3	-0.3889
UGUCUGUUAGUCCAUAUGC	FDX1	-0.6885

The last 6 entries again:

UAGAUCGACGUAGUCCUCC against SHANK1 read seed-corrected z-score 0.02519.
UAUACUUGACUCGAUAGGC against QARS read seed-corrected z-score -1.784.
UGUUUGAUUUGGUGCUUGU against RPL23AP14 read seed-corrected z-score -1.082.
UCUGGUGCUCUUGUUGCUG against SLC22A6 read seed-corrected z-score -0.1169.
AACGGACUGACAUAGAGCC against GAS2L3 read seed-corrected z-score -0.3889.
UGUCUGUUAGUCCAUAUGC against FDX1 read seed-corrected z-score -0.6885.

Data taken from PubChem BioAssay AID1159506, deposited by NCATS (2015).